At least one compound was matched to its structure with a doubt left. Some results were stated once for a whole list of compounds, not compound by compound.
Test system: brain myelination (myelin water fraction) of children up to 5 years of age
Experiment: Correlation analysis between infant formula nutrient composition and brain myelination (mcDESPOT MRI myelin water fraction)
Assay type: in vivo, human
Conditions: formula-fed children up to 5 years; for P of Spearman rank correlation between nutrient content and myelin content value (adjusted for child age): significance p<0.05 cluster corrected, association or trend p<0.15
Experimental: MRI (Magnetic Resonance Imaging): MRI brain scans of infants and children between 0 and 5 years were acquired using a white matter imaging technique. This technique provides a quantitative measure, the Myelin Water Fraction (MWF), which is a surrogate marker of myelin content in the brain. When mapped as a function of time across early childhood, myelination trajectories can be generated.
Infant formula composition: six infant formulas fed to infants participating in a study were analyzed for their composition/level of myelin-relevant nutrients.
Infants included in this study were drawn from a larger longitudinal study of normal brain and behavioral development: the Brown University Assessment of Myelination and Behavior Across Maturation (BAMBAM). To focus on neurotypical development, children with known potential risk factors for learning, neurologic, or psychiatric disorders were specifically excluded during recruitment and enrollment. Thus, children with in utero alcohol or illicit substance exposure, premature (<37 weeks gestation) or multiple birth, fetal ultrasound abnormalities, complicated pregnancy (e.g., preeclampsia), APGAR scores <8, NICU admission, neurological disorder (e.g., head injury, epilepsy), psychiatric or developmental disorders in the infant, parents or siblings (including maternal depression requiring medication) were excluded. Ongoing screenings, such as the MCAT for autism, or CBCL for behavioral problems, were further used to remove enrolled children with clinically concerning behaviors or overt medical conditions (such as autism spectrum disorders).
A combination of retrospective and prospective data were acquired from parents via detailed medical histories and parental interview on the type of infant formula used, percentage of breastfeeding to formula feeding, and length of exclusive breastfeeding. This information was updated at each study visit, which occurred approximately every 6 months for children under 2 years, and yearly for older children. Using this information, children were categorized into one of 2 groups: #1. Exclusively formula-fed; and #2. Exclusively breastfed for at least 90 days (3 months). Children who were fed a combination of breastmilk and formula within 3 months were excluded from our analysis. Infants within the exclusively formula-fed group were further sub-divided based on parental reports of the main infant formula used throughout the first 3 months. […]
Each infant was scanned using the mcDESPOT (multicomponent Driven Equilibrium Single Pulse Observation of T1 and T2) white matter imaging technique Deoni et al. (Magn. Reson. Med. 2008, 60:1372-1387), which provides a quantitative measure of the myelin water fraction (MWF)—a measure of myelin content—at each point throughout the brain. […]

Compound	association of nutrient with myelination (myelin water fraction) over time in the brain (brain regions listed in the block, FIG. 1b-1p)	P of Spearman rank correlation between nutrient content and myelin content value (adjusted for child age)
CC/C=C\C/C=C\C/C=C\C/C=C\C/C=C\C/C=C\CCC(=O)O [DHA, docosahexaenoic acid]	association with myelination (myelin water fraction) was observed over time in the brain	< 0.05
Sphingomyelin	–	< 0.05
phosphatidylcholine	–	< 0.15
